This is one part of the list. These are further read-outs of the screen, such as a control signal, another cell line or another target. No call is given for them. Compounds called inactive in the main read-out are mostly missing here. The note in brackets gives the kind of curve behind each potency; many fits are weak.
Assay: qHTS Assay for Lipid Storage Modulators in Drosophila S3 Cells;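 for cell number change: cells counted by Cell Tracker Red CMTPX staining in the red channel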
Details: BODIPY lipid droplet fluorescence, 18-24 h; for cell number change: measured here: cell count max response, cells fed with added oleic acid
Outline: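 Drosophila S3 cells loaded with oleic acid (400 uM, as added) and compounds at several concentrations; lipid droplets imaged by 488-nm laser-scanning cytometry, 500–530 nm intensity and object ratio to cell channel. Percent activity normalized to 20 uM Triacsin C.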

[1] = measured here: cell number channel AC50, cells fed with added oleic acid
[2] = measured here: lipid fluorescence (Fed channel) AC50, cells fed with added oleic acid

Row | SMILES | cell number change | AC50 [1] | AC50 [2]
1 | O=C(CSc1cn(CCNC(=O)c2c(F)cccc2F)c2ccccc12)NCC1CCCO1 (configuration not stated) | -19.8% | 3.66 µM [falling, full curve, poor fit] | 6.51 µM [falling, single point]
2 | CC(C)CCn1c(Oc2ccc(Cl)cc2)nc2c1c(=O)n(C)c(=O)n2C | 74.5% | 29.1 µM [rising, single point] | 
3 | CC(=O)Nc1ccc(S(=O)(=O)NCCC(=O)OCC(=O)c2cccc(Br)c2)cc1 | -25% | 4.11 µM [falling, single point] | 18.4 µM [rising, single point]
4 | CCOC(=O)N1CCN(C(=O)CN(c2ccc(C)cc2)S(=O)(=O)c2c(C)noc2C)CC1 |  | 4.61 µM [rising, single point] | 
5 | Cc1ccc(C(=O)N2CCN(C34CC5CC(CC(C5)C3)C4)CC2)o1 | -10.8% |  | 29.1 µM [rising, single point]
6 | Cc1ccc(C23CC4CC(CC(NC(=O)NCCN(C)C)(C4)C2)C3)cc1 | -18.1% | 1.16 µM [falling, full curve, poor fit] | 23.1 µM [falling, partial curve]
7 | CCOc1ccc(N2CC(C(=O)NCCCc3ccccc3)CC2=O)cc1 (configuration not stated) | -0.402% |  | 0.461 µM [rising, full curve, poor fit]
8 | Cc1cccc(-c2nc(CS(=O)CC(=O)NCCc3ccccc3)c(C)o2)c1 (configuration not stated) | 50% |  | 29.1 µM [rising, single point]
9 | O=C(N1CCOCC1)N1c2ccccc2CC(N2CCOCC2)c2ccccc21 (configuration not stated) | -37.8% | 1.64 µM [falling, full curve] | 0.00461 µM [falling, full curve, poor fit]
10 | Cc1cc(C)c(C#N)c(SCC(=O)Nc2ccc(S(=O)(=O)Nc3onc(C)c3C)cc2)n1 | 10.5% |  | 16.4 µM [rising, single point]
11 | c1ccc(CCc2cc3ccccc3[nH]2)cc1 | -54.4% | 5.17 µM [falling, single point] | 0.00517 µM [rising, full curve, poor fit]
12 | CC[n+]1c(/C=C2\C=C(C)CC(C)C2)sc2ccccc21 (configuration not stated) | 4% |  | 
13 | CNc1ccc(/C=C/C(=O)c2cccc3ccccc23)cc1[N+](=O)[O-] | -29.6% |  | 6.51 µM [falling, partial curve]
14 | O=C(CN(C(=O)CCC(=O)Nc1nccs1)c1ccccc1F)NCC1CCCO1 (configuration not stated) | -88.6% |  | 11.6 µM [falling, partial curve]
15 | COc1ccc(NC(=O)NC2CCCc3ccccc32)cc1OC (configuration not stated) | 33% | 1.64 µM [rising, full curve, poor fit] | 
16 | COc1ccc(C(=O)Nc2nc(C)c(C(=O)N(C)C)s2)cc1OC | 77.3% |  | 
17 | CCCCNC(=S)N(CCO)Cc1cc2cc3c(cc2[nH]c1=O)OCCO3 | 5.07% |  | 
18 | CCOC(=O)c1cc2sccc2n1CC(=O)Nc1ccc2c(c1)OCCO2 | 69.3% | 16.4 µM [rising, partial curve] | 
19 | O=C1c2ccccc2C(=O)N1CC(O)COc1ccccc1Cl (configuration not stated) | 36.1% |  | 

Molecules from the list above with a halogen:
Row | SMILES | cell number change | AC50 [1] | AC50 [2]
1 | O=C(CSc1cn(CCNC(=O)c2c(F)cccc2F)c2ccccc12)NCC1CCCO1 (configuration not stated) | -19.8% | 3.66 µM [falling, full curve, poor fit] | 6.51 µM [falling, single point]
2 | CC(C)CCn1c(Oc2ccc(Cl)cc2)nc2c1c(=O)n(C)c(=O)n2C | 74.5% | 29.1 µM [rising, single point] | 
3 | CC(=O)Nc1ccc(S(=O)(=O)NCCC(=O)OCC(=O)c2cccc(Br)c2)cc1 | -25% | 4.11 µM [falling, single point] | 18.4 µM [rising, single point]
14 | O=C(CN(C(=O)CCC(=O)Nc1nccs1)c1ccccc1F)NCC1CCCO1 (configuration not stated) | -88.6% |  | 11.6 µM [falling, partial curve]
19 | O=C1c2ccccc2C(=O)N1CC(O)COc1ccccc1Cl (configuration not stated) | 36.1% |  | 

Further structures:

Row | SMILES | cell number change | AC50 [1] | AC50 [2]
20 | CCC(C)NC(=O)c1ccc2c(c1)N(Cc1ccccc1)C(=O)CS2 (configuration not stated) | -24.9% |  | 
21 | CCN(CC)C(=O)C(C)N(C#N)c1nc(SC)nc(N(C)C)n1 (configuration not stated) |  |  | 0.82 µM [rising, single point]
22 | O=C(O)/C(=C\c1cccs1)Sc1nnc(-c2ccc(F)cc2)o1 | 32.5% |  | 16.4 µM [rising, single point]
23 | COc1c(C)cc(C(=O)C2CCCN(C(=O)Cn3ccc(C)n3)C2)cc1C (configuration not stated) |  |  | 0.58 µM [rising, single point]
24 | O=C(O)c1cccc(NS(=O)(=O)c2ccc3c(c2)OCCCO3)c1 | -18.7% |  | 18.4 µM [falling, single point]
25 | CC(C)c1ccc(NC(=O)Cn2ncc3ccccc32)cc1 |  | 0.58 µM [rising, single point] | 29.1 µM [rising, single point]
26 | Cc1ccc(Nc2nc(CSc3nnc(-c4cccnc4)n3-c3ccccc3F)cs2)cc1 | 0.115% |  | 
27 | CCC(=O)Nc1cccc(NC(=O)c2cc3ccccc3o2)c1 |  | 0.366 µM [rising, partial curve] | 0.116 µM [rising, single point]
28 | Cc1cc(S(=O)(=O)NCCN(C)C)c(C)s1 | 6.79% |  | 0.00461 µM [rising, full curve, poor fit]
29 | CCOc1ccc(NC(=O)CSc2nnnn2C2CC2)cc1S(=O)(=O)N1CCCC1 | -9.15% |  | 0.58 µM [falling, single point]
30 | Cc1ccc(N(CC(O)CN2CCCCC2)S(=O)(=O)c2ccccc2[N+](=O)[O-])cc1 (configuration not stated) | 5.53% |  | 
31 | COC(=O)Cn1c(=O)c2c(nc3n2CC(C)CN3CCc2ccccc2)n(C)c1=O (configuration not stated) | -13.9% |  | 6.51 µM [falling, partial curve, poor fit]
32 | COc1cccc(NC(=O)C(NC2CCCC2)c2ccccc2)c1 (configuration not stated) | -25.4% |  | 23.1 µM [rising, single point]
33 | CN(C)c1ccc(C(C[N+](=O)[O-])c2c(N)n(C)c(=O)n(C)c2=O)c(F)c1C#N (configuration not stated) | -31.7% | 6.51 µM [falling, partial curve] | 6.51 µM [falling, partial curve]
34 | CCOc1cccc(NC(=O)C2CCCN(S(=O)(=O)c3ccc(-n4cnnn4)cc3)C2)c1 (configuration not stated) | 33.1% | 29.1 µM [rising, single point] | 14.6 µM [rising, partial curve]
35 | CCOP(=O)(OCC)c1nc(-c2cccc3ccccc23)oc1NCCc1ccc(OC)cc1 |  |  | 1.3 µM [rising, full curve]
36 | CC(C)C(=O)N(Cc1cc2ccccc2[nH]c1=O)C(C)C | 30.2% | 23.1 µM [rising, single point] | 
37 | C=CCN1C(=O)[C@@H]2Cc3c([nH]c4ccccc34)C(c3ccc(O)cc3)N2C1=S (some centres not stated) | -14.6% |  | 29.1 µM [falling, single point]
38 | O=C(NNS(=O)(=O)c1ccc([N+](=O)[O-])cc1)C1CCCCC1 | 10.1% |  | 29.1 µM [rising, single point]
